Measured values reported in article PMC4402518.
No constants are given. Whether binding was seen depends on the method and setting. A result given as binding can be weak or reduced; the word gives no strength.

Chains of the proteins cited; added tags and fusions are not shown. Lines headed by an entry give the natural chain unless they say otherwise; changes in a name come on top.
UniProt A8BZF2: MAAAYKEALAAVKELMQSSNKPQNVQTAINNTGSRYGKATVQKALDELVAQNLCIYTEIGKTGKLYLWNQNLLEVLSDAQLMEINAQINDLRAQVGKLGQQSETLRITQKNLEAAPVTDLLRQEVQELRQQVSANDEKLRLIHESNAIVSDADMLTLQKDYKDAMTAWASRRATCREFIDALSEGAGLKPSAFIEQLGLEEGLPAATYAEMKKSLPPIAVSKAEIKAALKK

Target: Giardia lamblia Mnd1 (GL50803_6626), full length (Giardia lamblia ATCC 50803) (UniProt E2RTU1)
Test: crystal structure; hanging-drop vapor diffusion at 18°C, 18% PEG 3350, 0.1 M Tris-HCl pH 8.5, 2% Tascimate; SAD phasing with a SelMet crystal, refined against native data to 3.2 Å; three heterodimers in the asymmetric unit; both purified

binding: binds
Substance: Giardia lamblia Hop2 (GL50803_17044), full length (from UniProt A8BZF2)
